PubChem BioAssay AID1487 (National Center for Advancing Translational Sciences (NCATS), 2009)
Some of the results follow. These are further read-outs of the screen, such as a control signal, another cell line or another target. No call is given for them. The list favours compounds with an active or inconclusive main result. Potencies come from curve fits of mixed quality, noted in brackets.

Experiment: qHTS Assay for Modulators of Lamin A Splicing
Settings: HeLa LMNA splicing GFP/RFP minigene ratio, 48 h
How it was run: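 Read-out is the ratio of GFP to DsRed2 object intensity, acquired by 488 nm laser-scanning cytometry on HeLa lamin A-EGFP minigene reporter cells. Compound incubation 48 hrs at 37 °C in Opti-MEM with 2% FBS; DMSO 0.5% final.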

[1] = measured here: RFP viability control channel
[2] = measured here: GFP splicing reporter channel

Row | SMILES | AC50 [1] | AC50 [2]
1 | CC(C)CNC(=O)c1cccc(NC(=O)COc2ccc([N+](=O)[O-])cc2)c1 | 1.78 µM [falling, partial curve, poor fit] | –
2 | CC(=O)OCCNc1cc(Sc2nc3ccccc3[nH]2)c2nonc2c1[N+](=O)[O-] | 35.5 µM [rising, single point] | 31.6 µM [falling, single point]
3 | COc1ccc(Br)cc1CSC(=N)N | – | 0.0141 µM [falling, full curve, poor fit]
4 | CCOC(=O)N1CCN(C(=S)NC(=O)c2ccnn2C)CC1 | 15.8 µM [falling, partial curve] | –
5 | COc1cc(CC(=O)Nc2cccc(C(F)(F)F)c2)cc(OC)c1OC | 12.6 µM [rising, partial curve] | –
6 | CCCCCCCCNC(=O)c1cccnc1SCC(=O)Nc1ccccc1OC | – | 22.4 µM [rising, single point]
7 | CCCC(=O)Nc1nc2ccc(NC(=O)c3cccnc3)cc2s1 | 0.224 µM [falling, full curve, poor fit] | –
8 | CCOC(=O)Nc1nn(-c2ccc(C)cc2)c(=O)c(C#N)c1C | 0.282 µM [falling, full curve, poor fit] | –
9 | CCOc1ccc(CCNC(=O)C2CCCN(S(=O)(=O)c3c(C)n[nH]c3C)C2)cc1OCC (stereo not drawn) | 35.5 µM [rising, single point] | –
10 | Cc1ccc(C)c(NC(=S)c2ccc3ccccc3n2)c1 | 11.2 µM [rising, partial curve] | –
11 | NCCCCN=C(N)N | – | 0.00562 µM [rising, full curve, poor fit]
12 | O=C(NCC1CCCO1)c1csc(Nc2cccc3ccccc23)n1 (stereo not drawn) | 2 µM [rising, single point] | 0.631 µM [rising, partial curve]
13 | N#Cc1nc(Cc2cccc3ccccc23)oc1NCc1ccco1 | 22.4 µM [rising, partial curve] | –
14 | COc1ccc(NS(=O)(=O)c2cc(NC(=O)CNC(=O)c3ccc(C)s3)ccc2Cl)cc1 | 14.1 µM [rising, single point] | 11.2 µM [rising, partial curve]
15 | COc1ccc(C2(O)CC3CCC(C2)N3c2cc(C)nc(-c3ccccc3)n2)cc1 (stereo not drawn) | 15.8 µM [rising, partial curve] | 11.2 µM [rising, partial curve]
16 | CC1CCN(CCOCCOc2ccc(Br)cc2Cl)CC1 | 11.2 µM [rising, partial curve] | 11.2 µM [rising, partial curve]
17 | O=C(Nc1cccc(Cl)c1)c1ccc(Cn2cc(Cl)cn2)cc1 | 20 µM [rising, single point] | –
18 | COc1ccc(CN(C(=O)Cc2c[nH]c3ccccc23)C(C(=O)NC2CCCCC2)c2ccc(C)o2)cc1 (stereo not drawn) | 12.6 µM [rising, partial curve] | –

Individual results from the entries so far:
Cc1ccc(C)c(NC(=S)c2ccc3ccccc3n2)c1 | AC50 [1]: 11.2 µM [rising, partial curve]
COc1ccc(CN(C(=O)Cc2c[nH]c3ccccc23)C(C(=O)NC2CCCCC2)c2ccc(C)o2)cc1 (stereo not drawn) | AC50 [1]: 12.6 µM [rising, partial curve]

Next entries

Row | SMILES | AC50 [1] | AC50 [2]
19 | CC(C)NC(=S)Nc1cccc2cnccc12 | 10 µM [rising, partial curve, poor fit] | 7.94 µM [rising, partial curve]
20 | CCOC(=O)c1sc(NC(=O)c2cc3nc(-c4ccc(Br)cc4)cc(C(F)(F)F)n3n2)c(C(=O)OCC)c1C | 2.24 µM [falling, partial curve] | –
21 | Cc1ccc(C(C(=O)Nc2ccc3c(c2)OCO3)N(C)C(=O)/C=C\c2ccc3c(c2)OCO3)cc1 (stereo not drawn) | 11.2 µM [rising, partial curve] | 10 µM [rising, partial curve]
22 | Cn1nc(CC(=O)Nc2ccc3c(c2)CCC3)c2ccccc2c1=O | 0.631 µM [rising, full curve] | –
23 | c1ccc2c(-n3ccnc3)nc(-c3ccoc3)nc2c1 | 4.47 µM [falling, full curve] | 3.98 µM [falling, full curve]
24 | Cn1c(-n2c(-c3ccco3)nc3ccccc3c2=O)nc2ccccc21 | 17.8 µM [rising, single point] | –
25 | Cc1nc2ccc(S(=O)(=O)NCC(=O)N3CCCC(C)C3)cc2s1 (stereo not drawn) | 12.6 µM [rising, single point] | 10 µM [rising, partial curve, poor fit]
26 | CCCCn1c(NC(C)=O)c(C#N)c2nc3ccccc3nc21 | – | 3.55 µM [rising, partial curve, poor fit]
27 | CCOC(=O)c1nn(-c2ccc(F)cc2)cc1O | 0.00501 µM [falling, full curve, poor fit] | –
28 | CCN1C(=O)S/C(=C/c2c(OCc3ccc(C(=O)O)cc3)ccc3ccccc23)C1=O | 14.1 µM [rising, single point] | –
29 | CC1(C)S[C@@H]2[C@H](NC(=O)[C@@H](NC(=O)N3CCNC3=O)c3ccccc3)C(=O)N2[C@H]1C(=O)O | 0.0631 µM [rising, full curve, poor fit] | 0.000355 µM [rising, full curve, poor fit]
30 | CCNC(=O)/C(=C\C=C\c1ccccc1)NC(=O)c1ccc(Br)o1 | 35.5 µM [rising, single point] | 35.5 µM [rising, single point]
31 | Cc1ccc(-c2cc(C(=O)OC3CCOC3=O)c3ccccc3n2)c(C)c1 (stereo not drawn) | 1.26 µM [falling, full curve, poor fit] | –
32 | CCN1CCN(CCNC(=O)c2ccc(/C=C3/Sc4ccccc4N(Cc4cccc(Cl)c4)C3=O)cc2)CC1 | 35.5 µM [falling, single point] | –
33 | N#Cc1nc(-c2ccco2)oc1N1CCN(c2cccc(Cl)c2)CC1 | 14.1 µM [rising, single point] | –
34 | Cn1nnnc1Sc1c(Cl)cccc1[N+](=O)[O-] | 12.6 µM [rising, partial curve] | –
35 | Cc1cccc(CNc2nc(-c3ccoc3)nc3ccccc23)c1 | 31.6 µM [rising, single point] | 12.6 µM [rising, single point]
36 | CCOc1ccc(-n2nnc3c(=O)n(CC(=O)N4CCCc5ccccc54)cnc32)cc1 | 12.6 µM [rising, single point] | –
